Data taken from the supplement of paper PMC10849652.
The other results are listed elsewhere or left out.

Chains of the proteins cited; added tags and fusions are not shown. Lines headed by an entry give the natural chain unless they say otherwise; changes in a name come on top.
UniProt P24390: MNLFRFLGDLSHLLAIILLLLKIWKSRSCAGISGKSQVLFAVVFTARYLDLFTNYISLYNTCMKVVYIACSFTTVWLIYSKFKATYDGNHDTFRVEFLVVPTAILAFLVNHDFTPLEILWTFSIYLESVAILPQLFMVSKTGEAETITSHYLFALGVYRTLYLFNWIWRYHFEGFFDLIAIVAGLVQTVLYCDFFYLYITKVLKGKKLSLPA
UniProt P08648, whole entry, looked up: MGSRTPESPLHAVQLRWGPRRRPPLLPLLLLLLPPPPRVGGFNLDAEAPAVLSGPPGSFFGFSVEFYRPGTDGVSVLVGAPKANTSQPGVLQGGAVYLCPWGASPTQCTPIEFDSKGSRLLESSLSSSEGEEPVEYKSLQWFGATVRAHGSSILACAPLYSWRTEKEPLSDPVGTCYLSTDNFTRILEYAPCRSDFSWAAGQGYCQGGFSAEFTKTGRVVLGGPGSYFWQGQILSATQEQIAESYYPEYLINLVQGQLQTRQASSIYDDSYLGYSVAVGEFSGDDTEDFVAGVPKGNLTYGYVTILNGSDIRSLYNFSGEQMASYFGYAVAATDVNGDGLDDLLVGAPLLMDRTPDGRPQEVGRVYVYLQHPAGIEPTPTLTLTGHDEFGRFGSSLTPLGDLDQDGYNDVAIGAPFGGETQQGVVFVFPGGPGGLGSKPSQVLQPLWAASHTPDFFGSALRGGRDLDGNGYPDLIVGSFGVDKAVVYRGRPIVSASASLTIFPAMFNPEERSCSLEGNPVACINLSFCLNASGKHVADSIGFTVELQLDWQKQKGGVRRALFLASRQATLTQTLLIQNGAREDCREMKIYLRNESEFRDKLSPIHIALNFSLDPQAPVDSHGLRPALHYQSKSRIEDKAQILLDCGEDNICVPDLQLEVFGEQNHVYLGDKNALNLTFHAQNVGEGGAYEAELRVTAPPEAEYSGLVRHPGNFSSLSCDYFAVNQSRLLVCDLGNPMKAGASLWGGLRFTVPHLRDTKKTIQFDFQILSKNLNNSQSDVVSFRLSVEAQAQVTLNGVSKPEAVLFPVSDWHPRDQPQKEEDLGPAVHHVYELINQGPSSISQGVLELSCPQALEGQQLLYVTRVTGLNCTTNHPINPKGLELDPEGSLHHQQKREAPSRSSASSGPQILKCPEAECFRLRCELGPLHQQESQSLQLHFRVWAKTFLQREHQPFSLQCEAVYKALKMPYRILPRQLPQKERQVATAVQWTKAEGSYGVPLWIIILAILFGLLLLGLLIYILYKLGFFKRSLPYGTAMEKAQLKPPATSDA
UniProt P28290: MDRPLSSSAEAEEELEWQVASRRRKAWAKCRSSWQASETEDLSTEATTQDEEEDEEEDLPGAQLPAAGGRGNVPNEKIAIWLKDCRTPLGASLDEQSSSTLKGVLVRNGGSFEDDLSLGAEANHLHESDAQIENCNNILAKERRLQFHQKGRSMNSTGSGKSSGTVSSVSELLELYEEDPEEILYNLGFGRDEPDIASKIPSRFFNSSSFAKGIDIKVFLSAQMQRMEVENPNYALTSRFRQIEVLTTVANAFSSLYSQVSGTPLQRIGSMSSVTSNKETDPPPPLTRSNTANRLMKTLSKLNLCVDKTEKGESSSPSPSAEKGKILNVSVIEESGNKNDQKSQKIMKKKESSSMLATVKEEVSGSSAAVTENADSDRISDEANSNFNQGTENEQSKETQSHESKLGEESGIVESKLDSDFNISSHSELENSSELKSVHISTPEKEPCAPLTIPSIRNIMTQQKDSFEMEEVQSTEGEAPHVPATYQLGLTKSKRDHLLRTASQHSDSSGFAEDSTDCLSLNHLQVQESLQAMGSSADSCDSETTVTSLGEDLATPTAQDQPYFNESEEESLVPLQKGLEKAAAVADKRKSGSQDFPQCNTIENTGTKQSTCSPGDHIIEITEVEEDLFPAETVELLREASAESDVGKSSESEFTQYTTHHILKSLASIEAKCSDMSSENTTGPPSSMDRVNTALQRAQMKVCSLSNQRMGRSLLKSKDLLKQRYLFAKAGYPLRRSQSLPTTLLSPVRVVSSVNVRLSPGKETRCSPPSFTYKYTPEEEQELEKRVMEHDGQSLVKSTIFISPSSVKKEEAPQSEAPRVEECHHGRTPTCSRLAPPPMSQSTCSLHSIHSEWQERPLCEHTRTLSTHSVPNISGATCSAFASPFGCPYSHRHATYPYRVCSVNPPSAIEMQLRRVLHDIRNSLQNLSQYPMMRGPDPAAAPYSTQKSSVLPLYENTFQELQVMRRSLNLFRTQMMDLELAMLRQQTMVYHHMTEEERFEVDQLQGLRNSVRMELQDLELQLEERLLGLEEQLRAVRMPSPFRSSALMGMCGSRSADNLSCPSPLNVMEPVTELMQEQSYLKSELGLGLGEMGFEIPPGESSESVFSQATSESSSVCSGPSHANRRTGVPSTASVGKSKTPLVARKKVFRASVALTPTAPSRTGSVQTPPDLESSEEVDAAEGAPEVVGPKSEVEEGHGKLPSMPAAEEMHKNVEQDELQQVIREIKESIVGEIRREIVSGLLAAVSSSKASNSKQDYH
UniProt Q9NWZ3, whole entry, looked up: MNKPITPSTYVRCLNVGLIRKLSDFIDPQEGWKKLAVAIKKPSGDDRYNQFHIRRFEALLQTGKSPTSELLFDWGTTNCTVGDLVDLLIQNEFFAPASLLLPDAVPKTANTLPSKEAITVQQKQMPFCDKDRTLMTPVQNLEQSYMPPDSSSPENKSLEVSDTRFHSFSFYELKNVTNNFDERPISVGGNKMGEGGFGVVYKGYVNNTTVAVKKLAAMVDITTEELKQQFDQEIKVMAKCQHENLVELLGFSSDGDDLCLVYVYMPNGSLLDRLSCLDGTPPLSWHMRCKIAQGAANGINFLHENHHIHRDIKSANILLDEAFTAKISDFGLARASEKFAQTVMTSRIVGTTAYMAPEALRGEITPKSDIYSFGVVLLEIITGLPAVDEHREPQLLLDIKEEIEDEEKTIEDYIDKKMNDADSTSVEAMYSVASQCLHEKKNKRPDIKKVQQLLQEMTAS
UniProt Q86VI3: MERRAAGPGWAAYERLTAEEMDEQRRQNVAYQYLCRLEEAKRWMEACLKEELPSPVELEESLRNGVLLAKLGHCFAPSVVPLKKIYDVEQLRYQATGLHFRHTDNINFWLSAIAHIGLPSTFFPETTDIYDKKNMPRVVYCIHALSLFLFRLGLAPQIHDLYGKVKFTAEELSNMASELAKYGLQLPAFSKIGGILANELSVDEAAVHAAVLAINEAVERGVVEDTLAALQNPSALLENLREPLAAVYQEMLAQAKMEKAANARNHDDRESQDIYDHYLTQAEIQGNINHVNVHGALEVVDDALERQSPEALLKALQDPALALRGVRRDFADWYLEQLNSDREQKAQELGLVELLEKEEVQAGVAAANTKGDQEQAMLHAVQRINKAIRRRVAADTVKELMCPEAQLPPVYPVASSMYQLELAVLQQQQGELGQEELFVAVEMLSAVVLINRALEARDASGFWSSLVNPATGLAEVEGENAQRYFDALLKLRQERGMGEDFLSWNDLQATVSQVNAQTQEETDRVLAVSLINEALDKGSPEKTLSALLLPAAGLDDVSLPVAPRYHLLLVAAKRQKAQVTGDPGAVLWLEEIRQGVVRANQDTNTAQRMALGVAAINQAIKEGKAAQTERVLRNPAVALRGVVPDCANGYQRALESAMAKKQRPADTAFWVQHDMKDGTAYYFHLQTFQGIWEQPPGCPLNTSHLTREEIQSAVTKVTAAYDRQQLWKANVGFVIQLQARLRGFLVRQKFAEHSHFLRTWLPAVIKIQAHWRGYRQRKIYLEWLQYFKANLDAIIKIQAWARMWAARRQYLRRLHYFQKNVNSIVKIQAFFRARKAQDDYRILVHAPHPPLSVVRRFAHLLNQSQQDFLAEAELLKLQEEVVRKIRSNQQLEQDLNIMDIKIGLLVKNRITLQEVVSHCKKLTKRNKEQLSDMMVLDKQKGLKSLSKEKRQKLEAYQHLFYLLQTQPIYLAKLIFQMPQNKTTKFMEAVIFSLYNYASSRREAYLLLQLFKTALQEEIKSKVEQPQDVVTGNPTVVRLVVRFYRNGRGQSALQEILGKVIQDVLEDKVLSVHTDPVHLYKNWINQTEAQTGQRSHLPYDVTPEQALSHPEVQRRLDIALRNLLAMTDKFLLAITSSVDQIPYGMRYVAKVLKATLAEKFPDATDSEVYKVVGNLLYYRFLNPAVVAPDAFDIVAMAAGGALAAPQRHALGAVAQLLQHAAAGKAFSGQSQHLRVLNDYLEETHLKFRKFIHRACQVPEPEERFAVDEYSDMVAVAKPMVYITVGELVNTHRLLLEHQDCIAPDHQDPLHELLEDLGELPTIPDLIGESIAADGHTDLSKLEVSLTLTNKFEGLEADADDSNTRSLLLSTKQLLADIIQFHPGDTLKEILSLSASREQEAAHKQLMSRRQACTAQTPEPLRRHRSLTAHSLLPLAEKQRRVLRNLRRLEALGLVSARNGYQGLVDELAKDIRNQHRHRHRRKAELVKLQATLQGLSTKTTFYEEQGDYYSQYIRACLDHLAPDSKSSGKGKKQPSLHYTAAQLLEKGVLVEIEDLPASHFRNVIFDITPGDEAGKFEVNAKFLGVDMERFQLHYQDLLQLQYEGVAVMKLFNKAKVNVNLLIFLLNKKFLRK
UniProt Q9Y4H2: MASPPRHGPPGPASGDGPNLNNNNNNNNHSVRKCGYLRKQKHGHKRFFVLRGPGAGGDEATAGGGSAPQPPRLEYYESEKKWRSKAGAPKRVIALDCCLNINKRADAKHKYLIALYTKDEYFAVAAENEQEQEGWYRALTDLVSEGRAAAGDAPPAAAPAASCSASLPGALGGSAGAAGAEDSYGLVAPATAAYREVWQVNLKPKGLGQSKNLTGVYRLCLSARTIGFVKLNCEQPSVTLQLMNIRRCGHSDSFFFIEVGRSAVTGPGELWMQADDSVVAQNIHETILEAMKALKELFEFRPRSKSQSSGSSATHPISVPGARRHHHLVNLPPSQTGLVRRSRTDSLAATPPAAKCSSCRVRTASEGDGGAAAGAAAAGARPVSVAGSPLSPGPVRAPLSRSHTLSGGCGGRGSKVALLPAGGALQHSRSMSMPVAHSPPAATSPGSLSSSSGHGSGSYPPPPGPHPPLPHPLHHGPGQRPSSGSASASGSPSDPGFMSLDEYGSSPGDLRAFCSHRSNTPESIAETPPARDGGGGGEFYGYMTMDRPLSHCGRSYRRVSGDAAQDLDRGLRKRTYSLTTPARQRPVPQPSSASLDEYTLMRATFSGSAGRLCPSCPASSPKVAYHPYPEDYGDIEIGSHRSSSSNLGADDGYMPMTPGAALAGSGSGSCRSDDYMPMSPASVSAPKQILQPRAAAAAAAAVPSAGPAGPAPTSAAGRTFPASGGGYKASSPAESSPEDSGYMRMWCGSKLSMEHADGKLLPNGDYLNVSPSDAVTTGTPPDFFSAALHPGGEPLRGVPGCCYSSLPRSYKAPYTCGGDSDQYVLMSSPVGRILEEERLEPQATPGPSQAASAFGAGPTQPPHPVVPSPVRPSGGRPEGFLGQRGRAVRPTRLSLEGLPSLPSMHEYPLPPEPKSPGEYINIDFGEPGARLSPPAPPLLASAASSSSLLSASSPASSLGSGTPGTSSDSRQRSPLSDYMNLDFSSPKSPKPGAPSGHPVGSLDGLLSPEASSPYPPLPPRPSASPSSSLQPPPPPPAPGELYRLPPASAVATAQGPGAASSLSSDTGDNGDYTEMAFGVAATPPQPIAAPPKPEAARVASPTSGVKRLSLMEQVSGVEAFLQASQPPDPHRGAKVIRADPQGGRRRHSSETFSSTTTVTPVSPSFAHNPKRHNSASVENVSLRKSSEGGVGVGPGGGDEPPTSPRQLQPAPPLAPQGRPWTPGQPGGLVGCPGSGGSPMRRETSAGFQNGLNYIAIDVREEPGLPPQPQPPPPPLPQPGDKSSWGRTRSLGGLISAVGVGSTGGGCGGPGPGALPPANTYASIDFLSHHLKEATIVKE
UniProt Q9Y287, whole entry, looked up: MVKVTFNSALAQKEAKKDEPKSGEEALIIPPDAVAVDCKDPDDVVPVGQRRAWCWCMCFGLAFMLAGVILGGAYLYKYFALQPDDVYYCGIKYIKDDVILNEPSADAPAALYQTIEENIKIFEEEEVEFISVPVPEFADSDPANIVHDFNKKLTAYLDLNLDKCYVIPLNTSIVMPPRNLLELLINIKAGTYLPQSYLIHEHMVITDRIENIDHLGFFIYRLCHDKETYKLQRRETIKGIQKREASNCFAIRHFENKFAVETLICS
UniProt P0C870: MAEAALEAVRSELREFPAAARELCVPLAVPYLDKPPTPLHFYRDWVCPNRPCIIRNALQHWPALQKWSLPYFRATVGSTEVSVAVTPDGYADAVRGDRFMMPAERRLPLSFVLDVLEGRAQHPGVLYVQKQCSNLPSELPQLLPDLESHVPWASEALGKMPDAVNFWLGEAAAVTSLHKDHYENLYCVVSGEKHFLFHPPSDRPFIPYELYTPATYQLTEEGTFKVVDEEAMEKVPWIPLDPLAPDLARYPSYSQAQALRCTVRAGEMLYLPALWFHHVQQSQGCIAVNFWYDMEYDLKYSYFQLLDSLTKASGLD

Compound: CN1CC[C@H](c2c(O)cc(O)c3c(=O)cc(-c4ccccc4Cl)oc23)[C@H](O)C1 [alvocidib]
Assay: log2 fold change, soluble protein after heating vs DMSO (PISA); higher = thermal stabilisation; K562 lysate, 10 uM; active = over 0.2 and 3.5 SD of the protein, either way, in both replicates (recomputed)
Outline: (§1)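 Thermal stability, expressed as log-two fold change relative to solvent controls, is given from duplicates. Crude K562 extract in PBS pH 7.4 with 1 mM MgCl2, at 1 mg/mL protein, was treated with 10 μM compound for 30 min and heated in aliquots for 3 min across 48°C-58°C. After pooling, adjustment to 0.5% NP-40 at 4°C and centrifugation at 21,000xg for 90 min, supernatant protein was measured by TMTpro 16plex LC-MS/MS with channel sums equalised.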

log2 fold change, inactive:
KDELR1 (UniProt P24390) -0.098, IREB2 (UniProt P48200) 0.011, ITGA5 (UniProt P08648) -0.026, JMJD1C (UniProt Q15652) -0.011, ITPR1 (UniProt Q14643) -0.044, ITPRID2 (UniProt P28290) -0.048, KAT2A (UniProt Q92830) -0.009, KANSL1 (UniProt Q7Z3B3) -0.02, IRAK4 (UniProt Q9NWZ3) 0.01, KDM3A (UniProt Q9Y4C1) 0.02, IQSEC2 (UniProt Q5JU85) -0.006, KAT6B (UniProt Q8WYB5) -0.183, KDM2A (UniProt Q9Y2K7) -0.023, JMY (UniProt Q8N9B5) -0.062, ISOC2 (UniProt Q96AB3) 0.004, ITGAE (UniProt P38570) -0.092, INTS6L (UniProt Q5JSJ4) 0.011, KCNN4 (UniProt O15554) 0.112, INTS7 (UniProt Q9NVH2) -0.012, INTS6 (UniProt Q9UL03) 0.009, ITGA2B (UniProt P08514) -0.044, KARS1 (UniProt Q15046) 0.027, IQGAP3 (UniProt Q86VI3) -0.014, IRF2BP1 (UniProt Q8IU81) -0.029, ITIH2 (UniProt P19823) -0.002, INTS5 (UniProt Q6P9B9) 0.038, ITPKC (UniProt Q96DU7) -0.165, IPP (UniProt Q9Y573) 0.001, KCNAB2 (UniProt Q13303) -0.013, IRS2 (UniProt Q9Y4H2) -0.301, ITM2B (UniProt Q9Y287) 0.015, KANK2 isoform 2 (UniProt Q63ZY3) -0.143, JMJD7 (UniProt P0C870) 0.001, ITPK1 (UniProt Q13572) 0.053, ISL2 (UniProt Q96A47) 0.36, JAG2 (UniProt Q9Y219) -0.046, JAK2 (UniProt O60674) 0.002, KAT5 isoform 3 (UniProt Q92993) 0.067, ITGB5 (UniProt P18084) 0

Compound: CN1CCc2c(c3ccccc3n2Cc2ccc(C(=O)NO)cc2)C1 [Tubastatin A]
Assay: as above
Outline: as §1

log2 fold change, inactive:
KDELR1 (UniProt P24390) -0.003, IREB2 (UniProt P48200) -0.024, ITGA5 (UniProt P08648) 0.032, JMJD1C (UniProt Q15652) -0.011, ITPR1 (UniProt Q14643) 0.008, ITPRID2 (UniProt P28290) -0.053, KAT2A (UniProt Q92830) -0.252, KANSL1 (UniProt Q7Z3B3) -0.163, IRAK4 (UniProt Q9NWZ3) -0.083, KDM3A (UniProt Q9Y4C1) -0.037, IQSEC2 (UniProt Q5JU85) -0.165, KAT6B (UniProt Q8WYB5) -0.046, KDM2A (UniProt Q9Y2K7) -0.109, JMY (UniProt Q8N9B5) 0.132, ISOC2 (UniProt Q96AB3) -0.017, ITGAE (UniProt P38570) 0.078, INTS6L (UniProt Q5JSJ4) 0.059, KCNN4 (UniProt O15554) -0.059, INTS7 (UniProt Q9NVH2) 0.008, ITGA2B (UniProt P08514) -0.016, KARS1 (UniProt Q15046) -0.01, IQGAP3 (UniProt Q86VI3) -0.1, IRF2BP1 (UniProt Q8IU81) -0.047, ITIH2 (UniProt P19823) -0.02, INTS5 (UniProt Q6P9B9) -0.055, ITPKC (UniProt Q96DU7) -0.173, IPP (UniProt Q9Y573) -0.075, KCNAB2 (UniProt Q13303) -0.06, IRS2 (UniProt Q9Y4H2) -0.254, ITM2B (UniProt Q9Y287) 0.007, KANK2 isoform 2 (UniProt Q63ZY3) -0.439, JMJD7 (UniProt P0C870) -0.047, ITPK1 (UniProt Q13572) -0.13, ISL2 (UniProt Q96A47) 0.032, JAG2 (UniProt Q9Y219) 0.007, JAK2 (UniProt O60674) -0.133, ITGB5 (UniProt P18084) -0.017
